Measurements published in the supplement of paper PMC6078165.
Values are relative to the signal before dosing, not to a vehicle control; the signal also falls without drug.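 Cells used are triple-negative breast cancer lines, either basal-like or mesenchymal-like, grown in the absence of fibroblasts. Lower red signal means mitochondrial integrity is lost, a surrogate for apoptosis.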

Tests used:
Assay in all cases: relative JC-1 red fluorescence (viability) vs pre-drug, monoculture (fraction); higher = more viable cancer cells
Conditions in all cases: coculture fibroblast: none (monoculture)
BT20 = test system: BT20
Description: (§1)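 JC-1 labelled TNBC cells grown in monoculture (density kept equal with unlabelled cancer cells) in 384-well plates in FluoroBrite medium, treated with one of 42 anticancer drugs at 0.1, 1, 10 or 100 uM. JC-1 red fluorescence (mitochondrial integrity, surrogate of apoptotic death) was read by plate reader every 8 h for 72 h. Values are normalised to each well's pre-drug value, with background from alamethicin. The stock of one drug was tenfold lower, so its dose labels may be too high. Monoculture values are repeated alongside each fibroblast plate and are averaged here.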

MDAMB231 = test system: MDAMB231
Description: as §1

MDAMB468 = test system: MDAMB468
Description: as §1

MDAMB436 = test system: MDAMB436
Description: as §1

COc1cc([C@@H]2c3cc4c(cc3[C@@H](O[C@@H]3O[C@@H]5CO[C@@H](C)O[C@H]5[C@H](O)[C@H]3O)[C@H]3COC(=O)[C@H]23)OCO4)cc(OC)c1O [Etoposide]
relative JC-1 red fluorescence
Conditions | 8 h | 16 h | 24 h | 32 h | 40 h | 48 h | 56 h | 64 h | 72 h
BT20, 0.1 µM | 0.932 | 0.845 | 0.792 | 0.721 | 0.687 | 0.674 | 0.65 | 0.646 | 0.646
BT20, 1 µM | 0.903 | 0.801 | 0.775 | 0.692 | 0.644 | 0.624 | 0.6 | 0.599 | 0.59
BT20, 10 µM | 0.909 | 0.821 | 0.734 | 0.6245 | 0.5373 | 0.491 | 0.458 | 0.442 | 0.437
BT20, 100 µM | 0.9133 | 0.854 | 0.787 | 0.6868 | 0.651 | 0.6272 | 0.6084 | 0.599 | 0.6065
MDAMB231, 0.1 µM | 0.805 | 0.807 | 0.775 | 0.764 | 0.686 | 0.767 | 0.737 | 0.75 | 0.764
MDAMB231, 1 µM | 0.729 | 0.687 | 0.698 | 0.627 | 0.591 | 0.583 | 0.567 | 0.595 | 0.599
MDAMB231, 10 µM | 0.794 | 0.728 | 0.787 | 0.697 | 0.668 | 0.676 | 0.659 | 0.714 | 0.724
MDAMB231, 100 µM | 0.714 | 0.696 | 0.702 | 0.656 | 0.639 | 0.633 | 0.624 | 0.669 | 0.68
MDAMB436, 0.1 µM | 0.896 | 0.87 | 0.856 | 0.921 | 0.83 | 0.811 | 0.868 | 0.825 | 0.864
MDAMB436, 1 µM | 0.832 | 0.816 | 0.879 | 0.873 | 0.896 | 0.8104 | 0.853 | 0.833 | 0.882
MDAMB436, 10 µM | 0.8657 | 0.817 | 0.841 | 0.802 | 0.815 | 0.81 | 0.821 | 0.837 | 0.852
MDAMB436, 100 µM | 0.857 | 0.843 | 0.877 | 0.851 | 0.862 | 0.898 | 0.909 | 0.923 | 0.889
MDAMB468, 0.1 µM | 0.921 | 0.806 | 0.7335 | 0.664 | 0.621 | 0.625 | 0.598 | 0.588 | 0.585
MDAMB468, 1 µM | 0.868 | 0.784 | 0.748 | 0.689 | 0.652 | 0.65 | 0.634 | 0.622 | 0.624
MDAMB468, 10 µM | 0.9 | 0.805 | 0.791 | 0.751 | 0.723 | 0.719 | 0.697 | 0.69 | 0.681
MDAMB468, 100 µM | 0.887 | 0.817 | 0.799 | 0.733 | 0.701 | 0.708 | 0.683 | 0.672 | 0.678

Nc1ccn([C@@H]2O[C@H](CO)[C@@H](O)C2(F)F)c(=O)n1 [Gemcitabine]
relative JC-1 red fluorescence
Conditions | 8 h | 16 h | 24 h | 32 h | 40 h | 48 h | 56 h | 64 h | 72 h
BT20, 0.1 µM | 0.952 | 0.879 | 0.797 | 0.742 | 0.718 | 0.686 | 0.671 | 0.643 | 0.642
BT20, 1 µM | 0.9233 | 0.862 | 0.808 | 0.746 | 0.727 | 0.719 | 0.703 | 0.696 | 0.7
BT20, 10 µM | 0.951 | 0.867 | 0.75 | 0.665 | 0.632 | 0.607 | 0.581 | 0.559 | 0.549
BT20, 100 µM | 0.93611 | 0.873 | 0.7785 | 0.72 | 0.681 | 0.662 | 0.624 | 0.599 | 0.582
MDAMB231, 0.1 µM | 0.726 | 0.661 | 0.568 | 0.554 | 0.508 | 0.501 | 0.471 | 0.486 | 0.493
MDAMB231, 1 µM | 0.7083 | 0.66244 | 0.6056 | 0.576 | 0.538 | 0.523 | 0.485 | 0.507 | 0.5113
MDAMB231, 10 µM | 0.7477 | 0.6932 | 0.64 | 0.621 | 0.595 | 0.596 | 0.551 | 0.595 | 0.606
MDAMB231, 100 µM | 0.712 | 0.668 | 0.6 | 0.568 | 0.524 | 0.52 | 0.498 | 0.531 | 0.551
MDAMB436, 0.1 µM | 0.85 | 0.783 | 0.77636 | 0.7386 | 0.7453 | 0.7568 | 0.7757 | 0.7945 | 0.8097
MDAMB436, 1 µM | 0.854 | 0.716 | 0.727 | 0.686 | 0.666 | 0.663 | 0.657 | 0.665 | 0.664
MDAMB436, 10 µM | 0.886 | 0.761 | 0.769 | 0.711 | 0.707 | 0.703 | 0.71 | 0.714 | 0.718
MDAMB436, 100 µM | 0.86 | 0.8143 | 0.774 | 0.7 | 0.669 | 0.656 | 0.64 | 0.636 | 0.627
MDAMB468, 0.1 µM | 0.8877 | 0.847 | 0.782 | 0.694 | 0.64 | 0.609 | 0.567 | 0.538 | 0.524
MDAMB468, 1 µM | 0.883 | 0.799 | 0.74 | 0.634 | 0.587 | 0.556 | 0.507 | 0.473 | 0.464
MDAMB468, 10 µM | 0.8815 | 0.7847 | 0.691 | 0.612 | 0.566 | 0.531 | 0.49 | 0.449 | 0.445
MDAMB468, 100 µM | 0.899 | 0.806 | 0.768 | 0.6736 | 0.6382 | 0.603 | 0.5625 | 0.528 | 0.515

CCN(CC)CCNC(=O)c1c(C)[nH]c(/C=C2\C(=O)Nc3ccc(F)cc32)c1C [Sunitinib]
relative JC-1 red fluorescence
Conditions | 8 h | 16 h | 24 h | 32 h | 40 h | 48 h | 56 h | 64 h | 72 h
BT20, 0.1 µM | 0.905 | 0.8228 | 0.797 | 0.731 | 0.691 | 0.676 | 0.662 | 0.661 | 0.654
BT20, 1 µM | 0.939 | 0.859 | 0.838 | 0.774 | 0.74 | 0.725 | 0.688 | 0.684 | 0.664
BT20, 10 µM | 0.953 | 0.943 | 0.809 | 0.649 | 0.525 | 0.464 | 0.387 | 0.36 | 0.313
BT20, 100 µM | 0.311 | 0.185 | 0.2 | 0.149 | 0.123 | 0.126 | 0.098 | 0.0911 | 0.0836
MDAMB231, 0.1 µM | 0.686 | 0.652 | 0.656 | 0.603 | 0.566 | 0.551 | 0.537 | 0.557 | 0.56
MDAMB231, 1 µM | 0.736 | 0.713 | 0.605 | 0.631 | 0.592 | 0.561 | 0.526 | 0.531 | 0.51
MDAMB231, 10 µM | 0.764 | 0.819 | 0.5739 | 0.631 | 0.538 | 0.452 | 0.371 | 0.312 | 0.248
MDAMB231, 100 µM | 0.454 | 0.336 | 0.314 | 0.333 | 0.323 | 0.368 | 0.369 | 0.395 | 0.418
MDAMB436, 0.1 µM | 0.83 | 0.766 | 0.771 | 0.737 | 0.723 | 0.725 | 0.735 | 0.732 | 0.747
MDAMB436, 1 µM | 0.859 | 0.746 | 0.772 | 0.728 | 0.718 | 0.728 | 0.719 | 0.711 | 0.719
MDAMB436, 10 µM | 0.751 | 0.647 | 0.598 | 0.525 | 0.481 | 0.457 | 0.431 | 0.395 | 0.383
MDAMB436, 100 µM | 0.6001 | 0.414 | 0.395 | 0.334 | 0.308 | 0.309 | 0.28 | 0.273 | 0.276
MDAMB468, 0.1 µM | 0.872 | 0.766 | 0.745 | 0.689 | 0.649 | 0.6395 | 0.6078 | 0.594 | 0.591
MDAMB468, 1 µM | 0.885 | 0.799 | 0.749 | 0.682 | 0.632 | 0.605 | 0.568 | 0.533 | 0.515
MDAMB468, 10 µM | 0.712 | 0.366 | 0.258 | 0.194 | 0.158 | 0.144 | 0.119 | 0.103 | 0.0884
MDAMB468, 100 µM | 0.439 | 0.278 | 0.305 | 0.252 | 0.259 | 0.275 | 0.266 | 0.257 | 0.278
